Results as given in PubChem BioAssay AID485314 (National Center for Advancing Translational Sciences (NCATS), 2010).
Among all 340,000 compounds or so, about 4,500 (1.3%) were called active. Inconclusive means that the source gave no clear call. Such entries were picked first, then a sample of the others. The call rests on the fitted dose curve; in most records, active means well fitted inhibition curve with a large enough effect; inconclusive means small, poorly fitted or top-dose-only effect, or another doubt; inactive means no such curve, though single readings can be large or run the other way. Where the call is inconclusive, the potency comes from a doubtful curve fit.
On the % scale 0 is the no-effect control and ±100 the full control effect; potency means the concentration at half of the fitted maximal effect.

These compounds were tested against DNA polymerase beta (Homo sapiens) (UniProt P06746) (assay: qHTS Assay for Inhibitors of DNA Polymerase Beta). Conditions: Pol beta primer extension/strand displacement, fluorescence kinetic; activity change, negative = inhibition: at 114 µM (top of the series).
How it was run: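 Curves were derived by four-parameter Hill fits of normalized qHTS data. The kinetic fluorescent primer-extension read was taken at 0 and 10 min after 50 nM substrate, following a 15 min room-temperature preincubation of 10 nM enzyme with compounds.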
With `CCN(C(=O)c1nn(-c2ccc(OC)c(Cl)c2)c(=O)c2c1c1ccccc1n2C)c1cc(OC)ccc1OC` the Potency was “inactive”.
In the case of `CCOc1ccc(NC(=O)CN(C)S(=O)(=O)c2ccc3c(c2)c(=O)n(C)c(=O)n3C)cc1`, the Potency is reported as “inactive”.
`O=C(CN1C(=O)NC2(CCCCCC2)C1=O)Nc1ccc(S(=O)(=O)N2CCOCC2)cc1` was tested, and the Potency was inconclusive: 3.16 µM [inhibitor, full curve].
In the case of `O=C(Cc1ccccc1)Nc1ccc2oc(-c3cccnc3)nc2c1`, the Potency is reported as inconclusive: 28.2 µM [inhibitor, full curve, poor fit].
For `Cc1ccc2nc(NCc3ccco3)c(C=NCc3ccco3)c(=O)n2c1`, the Potency was active: 28.2 µM.
In the case of `COc1cccc(N2CCN(C(=S)NCCc3ccccc3)CC2)c1`, the Potency is reported as inconclusive: 89.1 µM [inhibitor, single point].
With `O=C(Nc1cccc(-c2nc3ncccc3o2)c1)c1ccc(-c2cccc(Cl)c2Cl)o1` the Potency was inconclusive: 3.55 µM [inhibitor, partial curve].
`COc1ccc(C(=O)NCC(c2cccnc2)N2CCN(c3ccc(F)cc3)CC2)cc1` (stereo not given) was tested, and the Potency was inconclusive: 89.1 µM [inhibitor, single point].
With `C=CCSc1nnc2nc3c(nn12)c1cc(C)ccc1n3CC=C` the Potency was active: 25.1 µM.
With `CC(=O)Nc1nonc1NC(C)=O` the Potency was “inactive”.
For `Nc1nc(N)c(S(=O)(=O)c2ccccc2)c(Nc2ccc(Br)cc2)n1`, the Potency was “inactive”.
For `c1ccc(-c2nn3c(Cn4nnc5ccccc54)nnc3s2)nc1`, the Potency was active: 17.8 µM.
With `O=c1c2c3c(sc2nc2n1CCCCC2)C(O)CCC3` (stereo not given) the Potency was inconclusive: 1.41 µM [inhibitor, full curve, poor fit].
For `COc1ccc(C(=O)NC2=C(C#N)CCC2)cc1OC`, the Potency was inconclusive: 89.1 µM [inhibitor, single point].
`O=C(Nc1nccs1)c1ccc2nccnc2c1` was tested, and the Potency was inconclusive: 50.1 µM [inhibitor, partial curve].
For `Cc1ccc(NC(=O)CN2CCN(Cc3ccccc3)CC2)c(Br)c1`, the Potency was inconclusive: 8.91 µM [inhibitor, partial curve].
`CCOc1ccccc1-n1c(SCC(=O)NC(C)(C)C)nnc1-c1ccoc1C` was tested, and the Potency was “inactive”.
With `Cc1ccc(-n2ncc3c(SCC(=O)Nc4cc(C)on4)ncnc32)c(C)c1` the Potency was inconclusive: 70.8 µM [inhibitor, single point].
For `COc1cc2c(cc1NC(=O)CC1SC(N3CCCC3)=NC1=O)oc1ccccc12` (stereo not given), the Potency was inconclusive: 44.7 µM [inhibitor, partial curve].
With `CN(c1ccc(C(=O)NCCSCc2ccco2)cc1)S(C)(=O)=O` the Potency was active: 1 µM.
With `Cc1ccc(N2C(=O)C3CCCN3C2=S)cc1Cl` (stereo not given) the Potency was inconclusive: 89.1 µM [inhibitor, single point].
In the case of `CS(=O)(=O)c1ccc2nc(NC(=O)C3CC(=O)N(c4ccc(F)cc4)C3)sc2c1` (stereo not given), the Potency is reported as inconclusive: 22.4 µM [inhibitor, full curve].
In the case of `O=C(CCc1ccccc1)Nc1ccc(F)cc1F`, the Potency is reported as inconclusive: 100 µM [inhibitor, single point].
For `COc1ccccc1N1CSC2=C(C#N)C(c3ccc(SC)cc3)CC(=O)N2C1` (stereo not given), the Potency was active: 25.1 µM.
In the case of `Cn1nnnc1SCc1nnc(-c2ccccc2Br)o1`, the Potency is reported as inconclusive: 100 µM [inhibitor, single point].
With `COc1ccccc1N(C)S(=O)(=O)c1ccc(C(=O)N(CC(N)=O)C(C)C)cc1` the Potency was inconclusive: 25.1 µM [inhibitor, partial curve, poor fit].
`O=C(N/N=C/c1cccc([N+](=O)[O-])c1)c1nc2ccccc2c(=O)[nH]1` was tested, and the Potency was “inactive”.
`COC(=O)COc1cccc2c(=O)n(CC(=O)Nc3ccc4c(c3)OCCO4)ccc12` was tested, and the Potency was inconclusive: 39.8 µM [inhibitor, partial curve].
`O=C(CCN1C(=O)/C(=C/c2ccccc2Cl)SC1=S)NC1CCS(=O)(=O)C1` (stereo not given) was tested, and the Potency was inconclusive: 50.1 µM [inhibitor, partial curve].
`COc1ccc(CC2(CO)CCN(C(C)Cc3ccc(Cl)cc3)CC2)cc1` (stereo not given) was tested, and the Potency was inconclusive: 89.1 µM [inhibitor, single point].
In the case of `CSc1nc2ccc(NS(=O)(=O)c3ccc([N+](=O)[O-])cc3)cc2s1`, the Potency is reported as inconclusive: 89.1 µM [inhibitor, single point].
For `Cc1cc(NS(=O)(=O)c2ccc(Nc3nc(-c4sc(C)nc4C)cs3)cc2)no1`, the Potency was inconclusive: 4.47 µM [inhibitor, full curve, poor fit].
In the case of `COc1ccccc1C(=O)Nc1ccccc1N1CCN(C(=O)c2ccc(Cl)cc2)CC1`, the Potency is reported as inconclusive: 79.4 µM [inhibitor, partial curve].
For `CCOc1ccc(Cn2nnc(C(=O)NCCc3ccccc3)c2N)cc1`, the Potency was “inactive”.
`O=C(Oc1cc(=O)oc2c1c(=O)n1c3c(cccc23)CC1)c1ccccc1` was tested, and the Potency was active: 39.8 µM.
With `Cc1csc(-c2cnn(-c3ccccc3)c2NC(=O)c2ccc(C(F)(F)F)cc2)n1` the Potency was inconclusive: 7.94 µM [inhibitor, full curve, poor fit].
For `CCN(CC)c1ccc(/C=N/NC(=O)Nc2ccccc2)cc1`, the Potency was inconclusive: 2.51 µM [inhibitor, full curve, poor fit].
For `CCn1cc(C(=O)N2CCN(C(=O)c3ccco3)CC2)c2cc(OC)c(OC)cc2c1=O`, the Potency was inconclusive: 89.1 µM [inhibitor, single point].
For `CCOC(=O)c1cc2c(=O)n3cccc(C)c3nc2n(Cc2ccco2)c1=NC(=O)c1cccnc1`, the Potency was active: 35.5 µM.
With `C=CCSc1nc(-c2ccccc2)c(C#N)c(=O)[nH]1` the Potency was “inactive”.
`COc1ccc(C(=O)Nc2nnc(S(=O)(=O)N3CCCc4ccccc43)s2)cc1` was tested, and the Potency was “inactive”.
For `CCOc1ccccc1-n1nnc(-c2nc(-c3ccccc3C)no2)c1C`, the Potency was “inactive”.
For `O=C(CCCN1C(=O)/C(=C/c2cccs2)SC1=S)NNC(=O)c1ccncc1`, the Potency was active: 25.1 µM.
With `COc1ccc(NC(=O)CSc2ccc(-c3ccco3)nn2)c(OC)c1` the Potency was inconclusive: 15.8 µM [inhibitor, full curve, poor fit].
With `O=C1C(Cl)=C(Nc2ccc3cn[nH]c3c2)C(=O)c2ccccc21` the activity change, negative = inhibition was inconclusive: -31.8% [inhibitor].
